These are yes or no findings as the source states them, for the method shown. Binding seen in cells or lysates may run through a third protein. Here binding means that the protein was enriched with, or labelled near, the bait; the list need not be complete.

Chains of the proteins cited; added tags and fusions are not shown.
UniProt Q91ZW3: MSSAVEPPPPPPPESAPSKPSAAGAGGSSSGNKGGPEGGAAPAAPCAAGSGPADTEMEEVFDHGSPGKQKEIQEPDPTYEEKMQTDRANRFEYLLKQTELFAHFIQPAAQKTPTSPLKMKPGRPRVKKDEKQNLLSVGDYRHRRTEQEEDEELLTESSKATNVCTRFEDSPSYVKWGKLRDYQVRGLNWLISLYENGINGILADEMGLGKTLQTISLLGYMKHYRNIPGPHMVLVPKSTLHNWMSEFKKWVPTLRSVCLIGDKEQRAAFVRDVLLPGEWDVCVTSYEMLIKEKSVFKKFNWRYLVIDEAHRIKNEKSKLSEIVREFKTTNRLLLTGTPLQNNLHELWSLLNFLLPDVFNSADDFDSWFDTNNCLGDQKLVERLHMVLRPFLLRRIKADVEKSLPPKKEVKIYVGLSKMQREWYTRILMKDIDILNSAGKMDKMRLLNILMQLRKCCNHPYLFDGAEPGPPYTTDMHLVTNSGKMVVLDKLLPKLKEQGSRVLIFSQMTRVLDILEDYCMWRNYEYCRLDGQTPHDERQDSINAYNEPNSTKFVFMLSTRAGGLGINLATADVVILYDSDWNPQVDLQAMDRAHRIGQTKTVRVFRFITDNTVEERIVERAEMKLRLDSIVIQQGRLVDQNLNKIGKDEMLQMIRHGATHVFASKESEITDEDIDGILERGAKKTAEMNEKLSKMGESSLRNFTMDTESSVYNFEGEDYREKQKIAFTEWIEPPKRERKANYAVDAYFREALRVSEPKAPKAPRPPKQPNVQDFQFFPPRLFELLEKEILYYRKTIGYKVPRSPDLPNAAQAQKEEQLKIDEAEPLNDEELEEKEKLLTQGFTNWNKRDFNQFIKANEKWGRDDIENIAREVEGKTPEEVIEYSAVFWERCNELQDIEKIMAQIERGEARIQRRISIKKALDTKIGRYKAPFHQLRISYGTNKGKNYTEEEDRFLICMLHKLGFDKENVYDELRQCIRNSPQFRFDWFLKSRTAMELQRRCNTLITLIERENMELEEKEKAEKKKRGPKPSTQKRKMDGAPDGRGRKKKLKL
UniProt E9Q2Z1: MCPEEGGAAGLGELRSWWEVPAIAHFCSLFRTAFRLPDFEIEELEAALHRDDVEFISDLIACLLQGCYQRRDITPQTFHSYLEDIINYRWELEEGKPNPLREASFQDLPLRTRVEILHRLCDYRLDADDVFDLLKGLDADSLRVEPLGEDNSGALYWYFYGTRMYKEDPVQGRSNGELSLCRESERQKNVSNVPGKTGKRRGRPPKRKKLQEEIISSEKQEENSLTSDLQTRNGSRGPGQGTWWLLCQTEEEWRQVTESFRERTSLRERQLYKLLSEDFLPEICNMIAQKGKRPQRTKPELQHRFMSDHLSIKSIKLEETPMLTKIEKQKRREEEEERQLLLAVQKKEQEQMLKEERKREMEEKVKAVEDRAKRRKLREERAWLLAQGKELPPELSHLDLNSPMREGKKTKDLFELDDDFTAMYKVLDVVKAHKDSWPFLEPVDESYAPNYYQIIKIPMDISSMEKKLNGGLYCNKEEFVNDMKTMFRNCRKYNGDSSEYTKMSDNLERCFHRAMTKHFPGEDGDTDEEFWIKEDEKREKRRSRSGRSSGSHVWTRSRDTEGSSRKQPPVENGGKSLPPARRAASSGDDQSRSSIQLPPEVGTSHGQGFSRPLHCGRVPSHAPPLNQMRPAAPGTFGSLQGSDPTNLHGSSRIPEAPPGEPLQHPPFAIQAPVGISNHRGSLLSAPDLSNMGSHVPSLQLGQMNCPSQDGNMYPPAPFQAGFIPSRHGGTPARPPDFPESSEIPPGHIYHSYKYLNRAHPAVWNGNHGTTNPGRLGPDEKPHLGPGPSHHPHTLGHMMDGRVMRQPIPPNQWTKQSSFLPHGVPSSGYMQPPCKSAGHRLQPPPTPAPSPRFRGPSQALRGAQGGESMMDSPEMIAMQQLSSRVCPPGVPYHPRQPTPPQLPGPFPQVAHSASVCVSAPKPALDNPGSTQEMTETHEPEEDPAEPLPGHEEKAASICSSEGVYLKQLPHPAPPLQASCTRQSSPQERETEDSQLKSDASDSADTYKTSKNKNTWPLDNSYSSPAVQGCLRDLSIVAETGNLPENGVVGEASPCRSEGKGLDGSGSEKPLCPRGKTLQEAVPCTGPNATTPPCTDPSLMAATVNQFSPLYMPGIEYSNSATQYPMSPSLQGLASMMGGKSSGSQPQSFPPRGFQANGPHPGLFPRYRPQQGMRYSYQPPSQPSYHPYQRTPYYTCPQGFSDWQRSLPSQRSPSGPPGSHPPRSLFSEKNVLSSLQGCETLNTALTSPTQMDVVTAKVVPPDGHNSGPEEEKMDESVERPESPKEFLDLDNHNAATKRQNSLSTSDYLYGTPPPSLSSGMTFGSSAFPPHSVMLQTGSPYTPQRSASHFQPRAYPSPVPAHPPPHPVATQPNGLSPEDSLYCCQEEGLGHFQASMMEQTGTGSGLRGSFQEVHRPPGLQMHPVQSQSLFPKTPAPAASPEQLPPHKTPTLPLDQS

Data on 1 substance can be found in doi:10.1101/2023.07.25.550466.

The target in this test is SNF2H (Smarca5) (mouse (endogenous in mESCs)) (UniProt Q91ZW3). The test is described as follows: affinity purification with mass spectrometry.

Regarding CECR2 (from UniProt E9Q2Z1 1-1453), the binding result is reported as “binds”.
